The subject of series [1] is T. cruzi epimastigotes. Briefly: Viability assay (Alamar Blue) on T. cruzi epimastigotes. It counts as cell-based, Trypanosoma cruzi. The settings on record: for T. cruzi Epimastigotes TI (Therapeutic Index): (IC50 in Hs27 human fibroblasts)/(EC50 in parasites). The method, then:
Viability assay on mammalian cells and T. cruzi epimastigotes. The cytotoxicity and anti-trypanosomal activity of the NC compounds was tested in human Hs27 fibroblasts (ATCC CRL-1634), LLC-MK2 cells (ATCC CCL-7), RAW 264.7 murine macrophages (ATCC TIB71) (American Type Culture Collection-ATCC, Manassa, Va.), mice intraperitoneal macrophages and in epimastigote forms of T. cruzi Y strain using Alamar Blue assay (Invitrogen—Life Technology, Grand Island, N.Y.). The experiments were performed as described using a range of concentration of 500 μM to 1 nM.

Series [2] deals with Leishmania major promastigotes. The experiment in a line: Luciferase survival assay on L. major promastigotes. It counts as cell-based. Conditions: for L. major Promastigotes TI (Therapeutic Index): (IC50 in Hs27 human fibroblasts)/(EC50 in parasites). The method, then:
Evaluation of the NC library activity against Leishmania major. The NC library (136 compounds) was screened using firefly luciferase-expressing L. major promastigotes referred to as Lmj-FV1-LUC-TK (L. major strain Friedlin (MHOM/JL/80/Friedlin) clone V1) engineered to express luciferase following integration of the construct pIR1SAT-LUC(a)-TK(b) (strain B5113) in the rRNA locus (S. M. Hickerson and S. M. Beverley, unpublished data). Enones (stock solutions in DMSO) were diluted (1 nM to 500 μM, in a final 1% DMSO) and added (1 μl per well) to 96-well microplates using an Eppendorf epMotion 5070 automated pipetting system. Promastigotes (10^6/well) were added, and parasite survival was assessed by luciferase activity with the substrate 5′-fluoroluciferin (ONE-Glo Luciferase Assay System, Promega) after 96-h incubation at 28° C., using a luminometer (Luminoskan, Thermo). The bioluminescent intensity was a direct measure of the survival of parasites. This was determined by comparing bioluminescent intensity of L. major parasites live/dead with MTT assay and cell counting. The primary compound screens were performed as single wells.

From patent US9669016B2, “Antiparasitic effect of Bis[3,5-Bis(Benzylidene)-4-Oxo-1-Piperidinyl]amide Derivatives” (priority 2014, dated 2017) come the findings set out here.

`CN(C)CC1CCC(CN(C)C)C1=O` (centres unmarked) [NC884]: the “T. cruzi Epimastigotes TI (Therapeutic Index)” value in series [1] was found to be 33.7. The “fold difference in toxicity against T. cruzi (Y strain) as in L. major” value in series [1] (epimastigotes vs L. major promastigotes) is “greater than 2 fold”. In series [2], the “L. major Promastigotes TI (Therapeutic Index)” value came out at 14.2.
Regarding `CN(C)CC1CCCC(CN(C)C)C1=O` (centres unmarked) [NC901], the “T. cruzi Epimastigotes TI (Therapeutic Index)” value in series [1] turned out to be 34.19. In series [2], the “L. major Promastigotes TI (Therapeutic Index)” value was found to be 35.
Take `O=C1/C(=C/c2ccccc2)CN(C(=O)C(=O)N2C/C(=C\c3ccccc3)C(=O)/C(=C/c3ccccc3)C2)C/C1=C\c1ccccc1` [NC2459]: the “T. cruzi Epimastigotes TI (Therapeutic Index)” value in series [1] is on record as 500. Moreover, in series [2], the “L. major Promastigotes TI (Therapeutic Index)” value was determined as 500. The “fold difference between the EC50 of the parasites and the IC50 of all mammalian cell lines” value in series [2] (all mammalian cell types tested) is at least 100 fold.
